From patent US8507537B2, “Trifluromethoxyphenyl-substituted tetramic acid derivatives pesticides and/or herbicides” (Bayer CropScience AG, priority 2006, dated 2013)
Some entries share one result that the patent states for a list of compounds.

Experiments:
Assay type in all cases: in vivo
Lolium multiflorum [1] = assay: Herbicidal pre-emergence action; conditions: 320 g/ha of a.i.
Setaria viridis [2] = assay: Herbicidal pre-emergence action; conditions: 320 g/ha of a.i.
Echinochloa crus-galli = assay: Herbicidal post-emergence action; conditions: 80 g/ha of a.i.
Lolium multiflorum [3] = assay: Herbicidal post-emergence action; conditions: 80 g/ha of a.i.
Setaria viridis [4] = assay: Herbicidal post-emergence action; conditions: 80 g/ha of a.i.
[5] = test system: caterpillars of the armyworm (Spodoptera frugiperda); assay: Spodoptera frugiperda test (SPODFR spray treatment); conditions: application rate of 500 g/ha of a.i. after 7 d

| SMILES | activity (herbicidal effect) (Lolium multiflorum [1]) [%] | activity (herbicidal effect) (Setaria viridis [2]) [%] | activity (herbicidal effect) (Echinochloa crus-galli) [%] | activity (herbicidal effect) (Lolium multiflorum [3]) [%] | activity (herbicidal effect) (Setaria viridis [4]) [%] | efficacy [5] [%] |
| --- | --- | --- | --- | --- | --- | --- |
| COc1cc(OC(F)(F)F)cc(Br)c1C1=C(O)C2(CCC(OC)CC2)NC1=O (single isomer, unassigned) [I-a-22] | ≥ 80 | ≥ 80 |  |  |  |  |
| COc1cc(OC(F)(F)F)cc(Cl)c1C1=C(O)C2(CCC(OC)CC2)NC1=O (single isomer, unassigned) [I-a-26] | ≥ 80 | ≥ 80 | ≥ 70 | ≥ 70 | ≥ 70 |  |
| COC1CCC2(CC1)NC(=O)C(c1c(Cl)cc(OC(F)(F)F)cc1Cl)=C2O (single isomer, unassigned) [I-a-29] | ≥ 80 | ≥ 80 |  |  |  |  |
| CCOC1CCCC2(C1)NC(=O)C(c1c(C)cc(OC(F)(F)F)cc1C)=C2O (single isomer, unassigned) [I-a-37] |  |  | ≥ 70 | ≥ 70 | ≥ 70 |  |
| COC1CCC2(CC1)NC(=O)C(c1c(C)cc(OC(F)(F)F)cc1C)=C2O (single isomer, unassigned) [I-a-38] | ≥ 80 | ≥ 80 |  |  |  |  |
| COC1CCC2(CC1)NC(=O)C(c1c(C)cc(OC(F)(F)F)cc1Cl)=C2O (single isomer, unassigned) [I-a-39] | ≥ 80 | ≥ 80 |  |  |  |  |
| COC1CCC2(CC1)NC(=O)C(c1c(C)cc(C)cc1OC(F)(F)F)=C2O (single isomer, unassigned) [I-a-49] | ≥ 80 | ≥ 80 | ≥ 70 | ≥ 70 | ≥ 70 |  |
| COC1CCC2(CC1)NC(=O)C(c1ccc(Cl)cc1OC(F)(F)F)=C2O (single isomer, unassigned) [I-a-52] | ≥ 80 | ≥ 80 |  |  |  |  |
| COC1CCC2(CC1)NC(=O)C(c1c(Cl)cccc1OC(F)(F)F)=C2O (single isomer, unassigned) [I-a-57] | ≥ 80 | ≥ 80 |  |  |  |  |
| CCOC1CCCC2(C1)NC(=O)C(c1c(Cl)cc(Br)cc1OC(F)(F)F)=C2O (single isomer, unassigned) [I-a-60] | ≥ 80 | ≥ 80 | ≥ 70 | ≥ 70 | ≥ 70 |  |
| COc1cc(Cl)cc(OC(F)(F)F)c1C1=C(O)C2(CCC(OC)CC2)NC1=O (single isomer, unassigned) [I-a-61] | ≥ 80 | ≥ 80 | ≥ 70 | ≥ 70 | ≥ 70 |  |
| COC1CCC2(CC1)NC(=O)C(c1c(Cl)cc(C)cc1OC(F)(F)F)=C2O (single isomer, unassigned) [I-a-62] | ≥ 80 | ≥ 80 |  |  |  |  |
| CCOC1CCCC2(C1)NC(=O)C(c1c(Cl)cc(C)cc1OC(F)(F)F)=C2O (single isomer, unassigned) [I-a-63] | ≥ 80 | ≥ 80 | ≥ 70 | ≥ 70 | ≥ 70 |  |
| CCc1cc(Cl)cc(OC(F)(F)F)c1C1=C(O)C2(CCC(OC)CC2)NC1=O (single isomer, unassigned) [I-a-66] | ≥ 80 | ≥ 80 | ≥ 70 | ≥ 70 | ≥ 70 |  |
| COC1CCC2(CC1)NC(=O)C(c1cc(OC(F)(F)F)ccc1Br)=C2OC(=O)C(C)C (single isomer, unassigned) [I-b-2] |  |  |  |  |  | ≥ 80 |
| COc1cc(OC(F)(F)F)cc(Br)c1C1=C(OC(=O)C(C)C)C2(CCC(OC)CC2)NC1=O (single isomer, unassigned) [I-b-13] | ≥ 80 | ≥ 80 |  |  |  |  |
| COc1cc(OC(F)(F)F)cc(Cl)c1C1=C(OC(=O)C(C)C)C2(CCC(OC)CC2)NC1=O (single isomer, unassigned) [I-b-17] | ≥ 80 | ≥ 80 |  |  |  |  |
| COC1CCC2(CC1)NC(=O)C(c1c(C)cc(OC(F)(F)F)cc1Cl)=C2OC(C)=O (single isomer, unassigned) [I-b-21] | ≥ 80 | ≥ 80 |  |  |  |  |
| COC1CCC2(CC1)NC(=O)C(c1c(C)cc(OC(F)(F)F)cc1Cl)=C2OC(=O)C(C)C (single isomer, unassigned) [I-b-22] | ≥ 80 | ≥ 80 |  |  |  |  |
| CCOC1CCCC2(C1)NC(=O)C(c1c(C)cc(C)cc1OC(F)(F)F)=C2OC(C)=O (single isomer, unassigned) [I-b-24] | ≥ 80 | ≥ 80 |  |  |  |  |
| COC1CCC2(CC1)NC(=O)C(c1c(C)cc(C)cc1OC(F)(F)F)=C2OC(C)=O (single isomer, unassigned) [I-b-25] | ≥ 80 | ≥ 80 | ≥ 70 | ≥ 70 | ≥ 70 |  |
| COC1CCC2(CC1)NC(=O)C(c1c(C)cc(C)cc1OC(F)(F)F)=C2OC(=O)C(C)C (single isomer, unassigned) [I-b-26] | ≥ 80 | ≥ 80 |  |  |  |  |
| CCOC(=O)OC1=C(c2c(Br)cc(OC(F)(F)F)cc2OC)C(=O)NC12CCC(OC)CC2 (single isomer, unassigned) [I-c-16] | ≥ 80 | ≥ 80 |  |  |  |  |
| CCOC(=O)OC1=C(c2c(C)cc(OC(F)(F)F)cc2Cl)C(=O)NC12CCC(OC)CC2 (single isomer, unassigned) [I-c-26] | ≥ 80 | ≥ 80 |  |  |  |  |
| CCOC(=O)OC1=C(c2c(OC)cc(Cl)cc2OC(F)(F)F)C(=O)NC12CCC(OC)CC2 (single isomer, unassigned) [I-c-31] | ≥ 80 | ≥ 80 |  |  |  |  |
| CCOC(=O)OC1=C(c2c(Cl)cc(C)cc2OC(F)(F)F)C(=O)NC12CCC(OC)CC2 (single isomer, unassigned) [I-c-36] | ≥ 80 | ≥ 80 |  |  |  |  |
| COc1cc(Br)cc(OC(F)(F)F)c1C1=C(O)C2(CCOCC2)NC1=O [I-a-51] | ≥ 80 | ≥ 80 | ≥ 70 | ≥ 70 | ≥ 70 |  |
| COc1cc(Cl)cc(OC(F)(F)F)c1C1=C(O)C2(CCOCC2)NC1=O [I-a-54] | ≥ 80 | ≥ 80 | ≥ 70 | ≥ 70 | ≥ 70 |  |
